According to patent publication US20120276076A1:
These are yes or no findings as the source states them, for the method shown. Binding seen in cells or lysates may run through a third protein. Some results given as binding are weak or reduced against the parent protein; the word gives no strength. Sequences can lack the tags named with a protein.

Sequences of proteins named here, by UniProt entry; tags and fusion partners are left off. Residues count along the entry.
UniProt P62331, residues 2-175: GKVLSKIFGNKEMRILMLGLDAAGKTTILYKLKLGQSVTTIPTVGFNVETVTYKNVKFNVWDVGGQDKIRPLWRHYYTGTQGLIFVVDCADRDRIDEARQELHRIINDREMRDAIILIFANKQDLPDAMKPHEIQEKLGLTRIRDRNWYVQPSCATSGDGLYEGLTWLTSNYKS

Target: ARF6-GTP (active ARF6, endogenous, from MEF lysates) (mouse) (UniProt P62331)
Assay: pull-down from MEF lysates on GST-GGA3 beads, Western blot

B1: GST-GGA3 (protein, UniProt Q9NZ52 1-316, looked up, not shown: a dimerising Fc or GST)
chain: MAEAEGESLESWLNKATNPSNRQEDWEYIIGFCDQINKELEGPQIAVRLLAHKIQSPQEWEALQALTVLEACMKNCGRRFHNEVGKFRFLNELIKVVSPKYLGDRVSEKVKTKVIELLYSWTMALPEEAKIKDAYHMLKRQGIVQSDPPIPVDRTLIPSPPPRPKNPVFDDEEKSKLLAKLLKSKNPDDLQEANKLIKSMVKEDEARIQKVTKRLHTLEEVNNNVRLLSEMLLHYSQEDSSDGDRELMKELFDQCENKRRTLFKLASETEDNDNSLGDILQASDNLSRVINSYKTIIEGQVINGEVATLTLPDSEG
B1 was tested, and the binding was “binds”.
